Experimental data from PMC10548170.
Results are given in words; binding and its absence hold for the method and conditions named. In cells and extracts the contact can be indirect.

Biological target: T1, SFB-MARCH5 WT (UniProt Q9NX47)
T1 sequence: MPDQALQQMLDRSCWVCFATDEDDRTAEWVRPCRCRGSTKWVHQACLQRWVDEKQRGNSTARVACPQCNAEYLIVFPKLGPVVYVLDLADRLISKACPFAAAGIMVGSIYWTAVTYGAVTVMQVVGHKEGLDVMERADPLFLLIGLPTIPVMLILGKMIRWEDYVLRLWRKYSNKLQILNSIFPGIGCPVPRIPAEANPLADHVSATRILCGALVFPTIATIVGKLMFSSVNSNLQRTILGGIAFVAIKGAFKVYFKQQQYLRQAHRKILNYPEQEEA
Assay: co-IP; HEK293T (MARCH5 KO by the text) cotransfected with Myc-NLRP3 WT or deletion mutants and SFB-MARCH5 WT; LPS 200 ng/ml 4 h and nigericin 15 uM 60 min; lysates precipitated with streptavidin beads, immunoblot

binding: no binding
Substance: Myc-NLRP3 ΔNACHT (domain or fragment)
